{"source": "patent US20110257146A1", "about": "“Method of Treating Kcnq Related Disorders Using Organozinc Compounds” (The johns Hopkins University, priority 2006, published 2011)", "target": "T1, KCNQ2 (W236L) (Rattus norvegicus, UniProt O88943, W236L)", "T1 construct": "expressed in transfected cells", "assay": "Whole-cell recording of KCNQ2 (W236L) mutant", "type": "cell-based", "settings": "10 μM RTG", "experimental": "FIG. 8. Differential modulatory sites on KCNQ channel by ZnPy and retigabine. A. Left Panel. Representative KCNQ2 current was recorded with intracellular pipet solution supplemented with 10 μM ZnPy. The overlapping external application of ZnPy is as shown. Right Panel. G-V curves at different indicated recording times (0 to 12 minutes) upon establishing stable seal are shown. The intracellular perfusion (with or without EGTA) was first calibrated by using compatible molecular weight dye. […] The levels of current potentiation at +50 mV and −30 mV were calculated by Idrug/Icontrol, and shown as indicated (n≧4, *p<0.001).\nMutagenesis—Starting from KCNQ cDNAs, the KCNQ2 point mutants were constructed by recombinant PCR and verified by sequencing.\nElectrophysiological Recording—Standard whole-cell recording was used. Pipettes were pulled from borosilicate glass capillaries (TW150-4, World Precision Instruments, Sarasota, Fla.). When filled with the intracellular solution, the pipettes have resistances of […]. During the recording, constant perfusion of extracellular solution was maintained using a BPS perfusion system (ALA, Westbury, N.Y.). […] Current and voltage were recorded using an Axopatch-200A amplifier, filtered at 1 kHz and digitized using a DigiData 1322A with pClamp 9.2 software (Axon Instruments, Foster City, Calif.). […]", "note": "For at least one compound, name, drawing or mass did not settle the structure.", "data": [{"smiles": "CCOC(=O)Nc1ccc(NCc2ccc(F)cc2)cc1N", "note": "[Retigabine, retigabine]", "values": [{"measurement": "sensitivity of mutant to compound", "value": "no longer sensitive to RTG"}]}]}
